PubChem BioAssay AID1259308 – NCATS | 2017
The whole screen tested about 59,000 reagents; shown is a random part of them. In the full data, about 1,510 (2.6%) are marked active. 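Calls use total luciferase alone and ignore viability, so some active siRNAs may act by altering cell number.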 Unmarked entries are inactive. Reagents against one gene are numbered here.

Screen: 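Genes whose loss raises luciferase production in HEK293 cells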 (primary screen)
System: human HEK293 embryonic kidney cells stably expressing firefly luciferase (HEK-CMV-Luc2-Hygro)
Reagent: single siRNA against human genes, 0.8 pmol siRNA per well
Duration: 72 h
Measured: 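Luciferase light (ONE-Glo) measured on one replicate plate set and viability (CellTiter-Glo) on the other, scaled to a negative control siRNA, with robust z-scores and luciferase per cell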
Reading the numbers: total luciferase, z-score and total luciferase, % of control: higher = more reporter protein produced; luciferase per cell, z-score: higher = more reporter output per viable cell; viable cells, % of control: higher = more viable cells
Rule for the call: 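Active when the median/MAD z-score for overall luciferase is greater than 3; a gene was taken forward for validation with new siRNAs if at least two of its three siRNAs passed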
Calls: active = raised luciferase; inactive = no rise

no.	target	reagent	total luciferase, z-score	total luciferase, % of control	luciferase per cell, z-score	viable cells, % of control
1	HDDC3	1	-0.737	67.2	0.765	61.4
2	HDDC3	2	-0.879	64.4	1.61	47
3	HDDC3	3	-0.936	63.3	-1.32	100
4	OR10G3	1	0.983	101	1.24	81.8
5	OR10G3	2	0.761	97	0.645	91.5
6	OR10G3	3	2.36	129	1.7	92
7	ATP13A2	1	-0.926	63.5	-1.29	99.5
8	ATP13A2	2	-1.87	44.7	-1.83	80.9
9	ATP13A2	3	2.14	124	1.28	99.3
10	MTARC1	1	2.29	127	1.71	90.6
11	MTARC1	2	0.849	98.8	0.439	98.3
12	MTARC1	3	-0.304	75.8	-0.639	100
13	GABRA5	1	-0.489	72.2	-0.511	92.3
14	GABRA5	2	-0.0688	80.5	-0.24	95.9
15	GABRA5	3	-1.05	61.1	-1.82	110
16	RARA	1	2.07	123	1.11	103
17	RARA	2	-0.865	64.7	-1.23	100
18	RARA	3	0.192	85.7	0.164	91.7
19	SLC19A3	1	0.577	93.4	0.049	103
20	SLC19A3	2	0.108	84	0.276	87.3
21	SLC19A3	3	-2.81	26	-2.1	50.6
22	OTUD7A	1	-0.17	78.5	-0.493	99.9
23	OTUD7A	2	0.0733	83.3	-0.0659	94.8
24	OTUD7A	3	0.57	93.2	0.838	83.5
25	FBXO42	1	-0.769	66.6	-1.25	104
26	FBXO42	2	0.789	97.6	0.272	101
27	FBXO42	3	-0.386	74.2	-0.921	106
28	RNASE2	1	-0.0305	81.3	0.683	75.9
29	RNASE2	2	1.35	109	1.59	79.9
30	RNASE2	3	2.22	126	2.22	78.6
31	HOXD12	1	3.13 (active)	144	2.96	74
32	HOXD12	2	-1.55	51	-1.21	78.3
33	HOXD12	3	-1.27	56.6	-0.852	79.1
34	PRAME	1	-0.632	69.3	-0.412	86.3
35	PRAME	2	0.0528	82.9	0.661	77.9
36	PRAME	3	3.83 (active)	158	2.77	85.2
37	NOP58	1	2.45	131	2.8	69.9
38	NOP58	2	-1.97	42.6	-1.99	80.5
39	NOP58	3	-1.73	47.5	-1.95	88.7

The list goes on, starting with the last 4 of the part before.
no.	target	reagent	total luciferase, z-score	total luciferase, % of control	luciferase per cell, z-score	viable cells, % of control
36	PRAME	3	3.83 (active)	158	2.77	85.2
37	NOP58	1	2.45	131	2.8	69.9
38	NOP58	2	-1.97	42.6	-1.99	80.5
39	NOP58	3	-1.73	47.5	-1.95	88.7
40	WT1-AS	1	-1.97	42.6	-2.11	83
41	WT1-AS	2	1	102	0.362	103
42	WT1-AS	3	0.352	88.9	-0.107	102
43	HPX-2 (retired record)	1	0.204	86	0.223	90.6
44	HPX-2 (retired record)	2	1.52	112	1.41	86.4
45	HPX-2 (retired record)	3	1.52	112	1.48	84.9
46	MAP6	1	0.893	99.6	0.649	93.9
47	MAP6	2	1.33	108	1.4	83.7
48	MAP6	3	-0.0782	80.3	2.81	42.9
49	AMZ1	1	-0.533	71.3	-0.112	82
50	AMZ1	2	-1.3	56	-0.694	75.1
51	AMZ1	3	-0.405	73.8	0.312	76
52	ZNF285	1	1.72	116	0.285	120
53	ZNF285	2	0.157	85	0.187	90.4
54	ZNF285	3	0.932	100	0.974	86.9
55	PTP4A3	1	-0.307	75.8	0.116	82.1
56	PTP4A3	2	0.649	94.8	0.582	90.9
57	PTP4A3	3	0.402	89.9	0.239	94.3
58	ETAA1	1	-0.304	75.8	-0.614	99.6
59	ETAA1	2	1.74	117	1.22	94.4
60	ETAA1	3	0.669	95.2	0.728	87.8
61	NUDT4	1	1.64	114	0.744	105
62	NUDT4	2	2.07	123	1.26	98.6
63	NUDT4	3	-0.972	62.6	-1.73	110
64	SHE	1	-0.73	67.4	-0.825	93.5
65	SHE	2	-1.03	61.4	-1.11	91.9
66	SHE	3	-1.51	51.8	-1.33	82.1
67	ANTXR2	1	0.295	87.8	0.967	76
68	ANTXR2	2	0.98	101	0.769	92.5
69	ANTXR2	3	3.67 (active)	155	2	102
70	FAM216B	1	-0.277	76.4	-0.763	104
71	FAM216B	2	4.12 (active)	164	2.35	98.4
72	FAM216B	3	-0.856	64.9	-0.963	93.4
73	RAB27B	1	-0.743	67.1	-1.07	99.3
74	RAB27B	2	1.72	116	1.73	82.2
75	RAB27B	3	0.581	93.5	0.443	92.9
